{"source": "paper PMC9700808", "binders": {"B1": {"name": "SET8, endogenous, Q9NQR1 1-393 (protein)", "chain": "MGEGGAAAALVAAAAAAAAAAAAVVAGQRRRRLGRRARCHGPGRAAGGKMSKPCAVEAAAAAVAATAPGPEMVERRGPGRPRTDGENVFTGQSKIYSYMSPNKCSGMRFPLQEENSVTHHEVKCQGKPLAGIYRKREEKRNAGNAVRSAMKSEEQKIKDARKGPLVPFPNQKSEAAEPPKTPPSSCDSTNAAIAKQALKKPIKGKQAPRKKAQGKTQQNRKLTDFYPVRRSSRKSKAELQSEERKRIDELIESGKEEGMKIDLIDGKGRGVIATKQFSRGDFVVEYHGDLIEITDAKKREALYAQDPSTGCYMYYFQYLSKTYCVDATRETNRLGRLINHSKCGNCQTKLHDIDGVPHLILIASRDIAAGEELLYDYGDRSKASIEAHPWLKH"}}, "target": "PARP1 (poly-ADP-ribose polymerase 1), endogenous (human (endogenous in HEK293T, HCT116, HeLa)), P09874", "experiment": "co-IP; endogenous proteins; 200 µg total extract of HCT116 cells cross-linked with 1% formaldehyde for 10 min; anti-PARP1 or anti-SET8 antibody, rabbit IgG as control; overnight at 4 °C in TD buffer (50 mM HEPES pH 7.5, 250 mM NaCl, 1% Triton X-100); protein G magnetic beads", "details": "remark: other sources report otherwise", "note": "No constants are given. Whether binding was seen depends on the method and setting. Binding seen in cells or lysates may run through a third protein. Some entries that bind do so weakly or less than the wild type.", "data": [{"binder": "B1", "values": [{"measurement": "binding", "value": "binds"}]}]}
